The list shows a part of the results, in another mix than the full data.
compound: COC(=O)C#Cc1ccccc1 [methyl 3-phenylpropiolate]; experiment: log2 ratio of iodoacetamide-alkyne labeling of the cysteine site, DMSO over compound (competition); higher = stronger covalent engagement of the cysteine by the compound, active = 1 or more; conditions: 500 µM; treatment time 1 h; system: HEK293T cell lysate
In short: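 Electrophile (500 µM) or vehicle was added to HEK293T lysate (2 mg/mL) for 1 h at ambient temperature before iodoacetamide alkyne labelling (1 h) and click coupling to sCIP-TMT reagents. After pooling, overnight trypsin digestion at 37 °C, streptavidin enrichment and acid elution, peptides were measured by Orbitrap Eclipse LC-MS/MS with FAIMS and quantified in FragPipe. Each cysteine's log2 competition ratio compares mean control-channel with mean compound-channel reporter intensity, control over compound. Data came from duplicate channels across three replicates, excluding cysteines quantified in only one replicate.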

Sequences of proteins named here, by UniProt entry; tags and fusion partners are left off. A change or cut given only in a name is not applied to a line headed by its entry.
UniProt P19338, whole entry: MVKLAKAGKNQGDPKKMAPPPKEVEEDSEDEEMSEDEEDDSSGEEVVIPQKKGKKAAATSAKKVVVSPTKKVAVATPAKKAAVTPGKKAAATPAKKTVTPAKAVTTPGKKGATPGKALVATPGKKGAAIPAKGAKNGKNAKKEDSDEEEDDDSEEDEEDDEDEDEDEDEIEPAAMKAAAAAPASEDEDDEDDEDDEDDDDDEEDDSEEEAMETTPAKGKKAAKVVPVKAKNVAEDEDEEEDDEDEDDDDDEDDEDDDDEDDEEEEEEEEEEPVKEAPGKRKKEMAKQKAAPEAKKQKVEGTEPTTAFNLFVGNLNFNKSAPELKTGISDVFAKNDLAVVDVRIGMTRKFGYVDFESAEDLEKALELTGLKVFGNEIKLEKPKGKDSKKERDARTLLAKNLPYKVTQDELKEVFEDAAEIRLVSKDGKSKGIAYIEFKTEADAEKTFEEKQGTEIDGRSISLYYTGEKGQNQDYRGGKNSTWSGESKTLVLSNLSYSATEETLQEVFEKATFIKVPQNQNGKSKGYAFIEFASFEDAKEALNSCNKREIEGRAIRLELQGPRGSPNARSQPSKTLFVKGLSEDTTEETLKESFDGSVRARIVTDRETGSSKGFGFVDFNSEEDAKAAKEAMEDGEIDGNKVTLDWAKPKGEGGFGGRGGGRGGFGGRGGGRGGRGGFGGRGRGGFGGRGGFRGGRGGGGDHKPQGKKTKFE
UniProt P20042, whole entry, looked up: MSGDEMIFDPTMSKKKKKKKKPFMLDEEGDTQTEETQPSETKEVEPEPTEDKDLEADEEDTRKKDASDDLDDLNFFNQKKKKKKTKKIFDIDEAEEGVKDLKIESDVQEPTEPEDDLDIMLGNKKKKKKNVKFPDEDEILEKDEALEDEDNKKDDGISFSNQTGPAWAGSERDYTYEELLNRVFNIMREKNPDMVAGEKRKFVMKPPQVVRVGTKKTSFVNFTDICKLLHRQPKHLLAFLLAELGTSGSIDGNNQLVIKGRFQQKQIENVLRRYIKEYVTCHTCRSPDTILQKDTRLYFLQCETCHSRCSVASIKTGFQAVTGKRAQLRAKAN
UniProt P23258, whole entry, looked up: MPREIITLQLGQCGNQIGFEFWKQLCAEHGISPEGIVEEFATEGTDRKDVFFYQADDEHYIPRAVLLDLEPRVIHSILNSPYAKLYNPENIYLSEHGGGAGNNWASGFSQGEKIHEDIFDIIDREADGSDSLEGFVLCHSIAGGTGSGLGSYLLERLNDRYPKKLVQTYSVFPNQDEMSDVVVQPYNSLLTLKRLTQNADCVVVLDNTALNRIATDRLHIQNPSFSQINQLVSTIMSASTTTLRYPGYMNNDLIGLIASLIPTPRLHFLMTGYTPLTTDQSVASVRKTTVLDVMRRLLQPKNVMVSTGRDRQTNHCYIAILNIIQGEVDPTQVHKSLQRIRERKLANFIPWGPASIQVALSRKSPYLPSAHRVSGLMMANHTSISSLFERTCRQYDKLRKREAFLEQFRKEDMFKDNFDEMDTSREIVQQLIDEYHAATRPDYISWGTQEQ
UniProt P27708: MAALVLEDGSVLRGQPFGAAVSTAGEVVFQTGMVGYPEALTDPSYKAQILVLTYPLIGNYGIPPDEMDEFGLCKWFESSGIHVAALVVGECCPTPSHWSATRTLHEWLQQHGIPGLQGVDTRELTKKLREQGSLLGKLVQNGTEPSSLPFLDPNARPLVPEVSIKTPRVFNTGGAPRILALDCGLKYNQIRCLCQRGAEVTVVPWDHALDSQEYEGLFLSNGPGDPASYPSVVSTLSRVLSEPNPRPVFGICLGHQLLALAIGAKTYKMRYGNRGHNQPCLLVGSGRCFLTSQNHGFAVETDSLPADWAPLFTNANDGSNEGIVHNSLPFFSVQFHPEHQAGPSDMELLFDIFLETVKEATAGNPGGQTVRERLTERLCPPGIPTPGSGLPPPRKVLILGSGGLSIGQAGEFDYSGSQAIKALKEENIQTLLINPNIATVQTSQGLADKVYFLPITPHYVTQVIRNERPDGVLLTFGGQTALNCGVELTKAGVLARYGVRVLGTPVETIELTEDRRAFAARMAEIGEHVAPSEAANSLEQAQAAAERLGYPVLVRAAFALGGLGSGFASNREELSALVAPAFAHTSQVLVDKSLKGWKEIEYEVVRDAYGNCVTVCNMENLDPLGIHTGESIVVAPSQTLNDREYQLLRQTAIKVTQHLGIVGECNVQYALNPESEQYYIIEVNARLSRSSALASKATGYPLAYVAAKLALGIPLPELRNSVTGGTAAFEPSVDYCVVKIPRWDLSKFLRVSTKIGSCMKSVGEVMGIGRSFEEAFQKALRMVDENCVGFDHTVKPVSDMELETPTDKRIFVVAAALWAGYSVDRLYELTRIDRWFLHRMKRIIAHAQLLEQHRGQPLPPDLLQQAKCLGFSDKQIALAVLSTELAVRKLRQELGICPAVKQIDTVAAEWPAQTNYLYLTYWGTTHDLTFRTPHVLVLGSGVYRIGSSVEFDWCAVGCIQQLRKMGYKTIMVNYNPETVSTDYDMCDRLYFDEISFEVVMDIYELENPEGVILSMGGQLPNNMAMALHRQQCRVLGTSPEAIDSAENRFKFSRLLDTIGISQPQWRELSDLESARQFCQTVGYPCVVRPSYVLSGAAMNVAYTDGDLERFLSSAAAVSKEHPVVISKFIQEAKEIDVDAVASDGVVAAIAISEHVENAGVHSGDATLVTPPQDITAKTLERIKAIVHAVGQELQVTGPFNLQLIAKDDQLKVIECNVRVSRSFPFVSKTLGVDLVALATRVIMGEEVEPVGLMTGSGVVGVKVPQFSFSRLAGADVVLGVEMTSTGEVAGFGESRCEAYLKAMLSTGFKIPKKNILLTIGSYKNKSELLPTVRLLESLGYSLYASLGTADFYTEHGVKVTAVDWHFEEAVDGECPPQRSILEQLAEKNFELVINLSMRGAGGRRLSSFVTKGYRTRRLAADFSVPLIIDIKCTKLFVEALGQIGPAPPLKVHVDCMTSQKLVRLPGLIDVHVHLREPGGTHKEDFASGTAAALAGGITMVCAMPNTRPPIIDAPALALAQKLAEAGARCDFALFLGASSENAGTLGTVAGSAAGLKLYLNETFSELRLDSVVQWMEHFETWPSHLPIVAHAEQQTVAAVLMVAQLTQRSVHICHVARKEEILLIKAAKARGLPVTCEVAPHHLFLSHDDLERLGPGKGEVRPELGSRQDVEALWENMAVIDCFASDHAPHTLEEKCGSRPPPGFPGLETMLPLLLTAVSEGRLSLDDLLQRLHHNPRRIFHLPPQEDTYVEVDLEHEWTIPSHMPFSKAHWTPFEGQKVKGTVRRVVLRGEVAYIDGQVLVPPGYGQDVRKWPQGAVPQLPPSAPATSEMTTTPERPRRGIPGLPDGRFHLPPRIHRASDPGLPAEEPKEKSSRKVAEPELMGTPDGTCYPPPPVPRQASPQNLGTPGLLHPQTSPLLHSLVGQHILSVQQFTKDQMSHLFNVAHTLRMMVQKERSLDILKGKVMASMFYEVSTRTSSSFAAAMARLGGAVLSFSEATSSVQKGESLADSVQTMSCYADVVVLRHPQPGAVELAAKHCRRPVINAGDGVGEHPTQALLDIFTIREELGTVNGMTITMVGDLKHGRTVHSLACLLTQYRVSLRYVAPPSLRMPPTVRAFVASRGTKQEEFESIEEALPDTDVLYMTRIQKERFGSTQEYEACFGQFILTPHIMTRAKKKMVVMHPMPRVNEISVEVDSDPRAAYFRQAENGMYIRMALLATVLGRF
UniProt P30048: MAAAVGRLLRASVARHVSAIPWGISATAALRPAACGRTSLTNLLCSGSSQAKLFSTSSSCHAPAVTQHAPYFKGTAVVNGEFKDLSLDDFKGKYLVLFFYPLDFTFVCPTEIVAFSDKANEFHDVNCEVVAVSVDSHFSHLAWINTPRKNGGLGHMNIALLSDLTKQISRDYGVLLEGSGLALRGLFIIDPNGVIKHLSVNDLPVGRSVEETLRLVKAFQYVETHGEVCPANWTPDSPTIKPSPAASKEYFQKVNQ
UniProt P29692: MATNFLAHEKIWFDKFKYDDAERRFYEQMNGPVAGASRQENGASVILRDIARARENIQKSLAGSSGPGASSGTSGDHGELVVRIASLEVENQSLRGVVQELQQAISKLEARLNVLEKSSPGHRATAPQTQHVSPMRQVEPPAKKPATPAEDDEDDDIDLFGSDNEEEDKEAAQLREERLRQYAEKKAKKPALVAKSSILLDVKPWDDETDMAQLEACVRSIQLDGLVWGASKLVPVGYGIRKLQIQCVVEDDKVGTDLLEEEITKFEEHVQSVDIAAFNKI
UniProt P22392, whole entry: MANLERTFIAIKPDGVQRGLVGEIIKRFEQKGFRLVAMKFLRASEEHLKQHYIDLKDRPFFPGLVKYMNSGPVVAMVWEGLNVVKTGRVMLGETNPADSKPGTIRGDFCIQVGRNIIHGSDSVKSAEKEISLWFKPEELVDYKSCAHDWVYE
UniProt P18754: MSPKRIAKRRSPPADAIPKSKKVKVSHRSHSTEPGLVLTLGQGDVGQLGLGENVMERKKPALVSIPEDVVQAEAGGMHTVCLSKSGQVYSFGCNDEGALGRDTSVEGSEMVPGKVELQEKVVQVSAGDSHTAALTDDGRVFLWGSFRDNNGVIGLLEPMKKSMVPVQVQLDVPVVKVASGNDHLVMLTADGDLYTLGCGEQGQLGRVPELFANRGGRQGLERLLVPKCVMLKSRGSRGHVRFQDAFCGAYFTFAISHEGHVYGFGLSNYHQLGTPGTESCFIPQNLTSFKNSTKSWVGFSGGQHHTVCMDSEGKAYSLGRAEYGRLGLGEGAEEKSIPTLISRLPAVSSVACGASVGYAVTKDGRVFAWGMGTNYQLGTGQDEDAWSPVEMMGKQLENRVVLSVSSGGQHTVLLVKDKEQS
UniProt P29317, whole entry: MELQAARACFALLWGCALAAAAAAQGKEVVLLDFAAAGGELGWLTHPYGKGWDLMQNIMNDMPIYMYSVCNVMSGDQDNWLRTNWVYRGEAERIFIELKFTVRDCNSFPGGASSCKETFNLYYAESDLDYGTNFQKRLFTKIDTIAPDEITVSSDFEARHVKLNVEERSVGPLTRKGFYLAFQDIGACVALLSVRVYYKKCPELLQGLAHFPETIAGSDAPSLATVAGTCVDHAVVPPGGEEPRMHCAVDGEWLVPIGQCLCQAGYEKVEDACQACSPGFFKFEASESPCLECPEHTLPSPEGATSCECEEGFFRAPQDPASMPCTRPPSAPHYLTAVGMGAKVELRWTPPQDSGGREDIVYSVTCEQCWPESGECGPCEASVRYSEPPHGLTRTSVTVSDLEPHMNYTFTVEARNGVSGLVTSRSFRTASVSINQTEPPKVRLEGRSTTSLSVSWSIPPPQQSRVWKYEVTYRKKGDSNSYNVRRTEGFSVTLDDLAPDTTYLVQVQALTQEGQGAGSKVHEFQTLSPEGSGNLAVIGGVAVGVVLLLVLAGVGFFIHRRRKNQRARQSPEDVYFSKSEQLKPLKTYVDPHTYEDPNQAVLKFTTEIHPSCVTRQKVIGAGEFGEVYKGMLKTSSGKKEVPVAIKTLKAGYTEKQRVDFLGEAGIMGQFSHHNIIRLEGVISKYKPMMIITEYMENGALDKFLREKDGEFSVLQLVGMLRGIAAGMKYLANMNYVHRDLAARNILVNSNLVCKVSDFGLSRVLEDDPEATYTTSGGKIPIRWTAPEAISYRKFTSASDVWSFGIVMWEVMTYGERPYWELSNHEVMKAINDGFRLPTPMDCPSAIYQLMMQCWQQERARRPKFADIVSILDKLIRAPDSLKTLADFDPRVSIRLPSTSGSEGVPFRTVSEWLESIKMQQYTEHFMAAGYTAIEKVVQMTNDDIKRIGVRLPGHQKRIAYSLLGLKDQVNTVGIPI
UniProt P22830: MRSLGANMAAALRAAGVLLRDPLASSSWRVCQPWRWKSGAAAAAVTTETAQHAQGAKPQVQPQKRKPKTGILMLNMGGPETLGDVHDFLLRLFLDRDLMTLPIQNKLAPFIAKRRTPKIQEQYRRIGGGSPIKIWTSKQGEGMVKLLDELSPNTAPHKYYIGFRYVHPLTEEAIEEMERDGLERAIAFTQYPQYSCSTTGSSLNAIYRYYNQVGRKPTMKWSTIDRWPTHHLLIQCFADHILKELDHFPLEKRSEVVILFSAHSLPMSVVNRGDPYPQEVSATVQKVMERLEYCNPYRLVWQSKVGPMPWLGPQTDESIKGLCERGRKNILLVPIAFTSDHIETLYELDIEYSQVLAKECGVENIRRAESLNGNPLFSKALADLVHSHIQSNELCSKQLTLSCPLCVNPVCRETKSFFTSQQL
UniProt P25325: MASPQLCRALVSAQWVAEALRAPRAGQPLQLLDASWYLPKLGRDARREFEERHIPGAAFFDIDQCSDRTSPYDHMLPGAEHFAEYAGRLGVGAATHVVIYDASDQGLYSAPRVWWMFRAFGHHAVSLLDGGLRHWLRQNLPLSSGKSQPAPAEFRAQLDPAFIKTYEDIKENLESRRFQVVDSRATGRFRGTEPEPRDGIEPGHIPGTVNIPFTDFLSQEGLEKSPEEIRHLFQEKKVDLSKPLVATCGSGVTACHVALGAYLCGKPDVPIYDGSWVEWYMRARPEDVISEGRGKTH

log2 ratio of iodoacetamide-alkyne labeling, inactive:
VDAC1 C232 (UniProt P21796) -0.026, NCL C543 (UniProt P19338) 0.323, EIF2S2 C226 (UniProt P20042) 0.0653, TUBG1 C138 (UniProt P23258) 0.161, RPL10 C195 (UniProt P27635) 0.694, GLDC C612 (UniProt P23378) 0.41, CAD C252 (UniProt P27708) 0.0601, PRDX3 C229 (UniProt P30048) 0.734, EEF1D C217 (UniProt P29692) 0.177, NME2 C145 (UniProt P22392) 0.091, CAD C379 (UniProt P27708) -0.0222, SON C2070 (UniProt P18583) 0.322, PAICS C374 (UniProt P22234) -0.119, RCC1 C198 (UniProt P18754) 0.217, FLNA C2199 (UniProt P21333) 0.0103, EPHA2 C612 (UniProt P29317) 0.0671, NDUFS1 C226 (UniProt P28331) -0.0202, FECH C395 (UniProt P22830) 0.372, UniProt P25398_C56 -0.109, CAD C736 (UniProt P27708) 0.212, MPST C7 (UniProt P25325) 0.148, FLNA C574 (UniProt P21333) -0.0328

— the supplement of paper PMC11006884
